Reference: paper doi:10.1101/2021.06.16.448656
No constants are given. Whether binding was seen depends on the method and setting. Binding seen in cells or lysates may run through a third protein. Here binding means that the protein was enriched with, or labelled near, the bait; the list need not be complete. For part of these data: Sequences can lack the tags named with a protein.

Protein sequences, listed by entry. Tags and fused reporters are not part of them.
UniProt Q9UKV8: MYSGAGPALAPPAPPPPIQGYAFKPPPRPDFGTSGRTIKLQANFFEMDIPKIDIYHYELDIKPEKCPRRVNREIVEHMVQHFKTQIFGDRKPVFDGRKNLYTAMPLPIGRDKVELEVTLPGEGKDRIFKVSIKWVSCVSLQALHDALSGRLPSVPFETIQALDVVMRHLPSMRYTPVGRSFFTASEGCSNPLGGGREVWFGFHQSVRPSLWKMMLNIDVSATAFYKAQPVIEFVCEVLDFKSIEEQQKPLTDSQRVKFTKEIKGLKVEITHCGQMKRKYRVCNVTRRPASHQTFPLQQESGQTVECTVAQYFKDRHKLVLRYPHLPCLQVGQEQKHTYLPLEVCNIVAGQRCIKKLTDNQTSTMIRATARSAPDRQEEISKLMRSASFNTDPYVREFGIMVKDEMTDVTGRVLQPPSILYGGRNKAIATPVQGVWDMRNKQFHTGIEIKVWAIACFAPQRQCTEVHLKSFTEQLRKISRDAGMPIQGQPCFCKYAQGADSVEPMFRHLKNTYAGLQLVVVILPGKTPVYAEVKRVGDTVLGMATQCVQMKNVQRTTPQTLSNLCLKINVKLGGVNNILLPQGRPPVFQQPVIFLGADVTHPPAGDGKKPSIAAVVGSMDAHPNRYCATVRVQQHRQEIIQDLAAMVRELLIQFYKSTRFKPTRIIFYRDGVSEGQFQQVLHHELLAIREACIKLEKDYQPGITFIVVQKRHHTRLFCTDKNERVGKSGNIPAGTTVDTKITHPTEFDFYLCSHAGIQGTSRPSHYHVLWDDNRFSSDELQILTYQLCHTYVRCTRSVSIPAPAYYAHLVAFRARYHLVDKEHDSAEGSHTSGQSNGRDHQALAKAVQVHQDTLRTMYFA
UniProt Q8CHG3: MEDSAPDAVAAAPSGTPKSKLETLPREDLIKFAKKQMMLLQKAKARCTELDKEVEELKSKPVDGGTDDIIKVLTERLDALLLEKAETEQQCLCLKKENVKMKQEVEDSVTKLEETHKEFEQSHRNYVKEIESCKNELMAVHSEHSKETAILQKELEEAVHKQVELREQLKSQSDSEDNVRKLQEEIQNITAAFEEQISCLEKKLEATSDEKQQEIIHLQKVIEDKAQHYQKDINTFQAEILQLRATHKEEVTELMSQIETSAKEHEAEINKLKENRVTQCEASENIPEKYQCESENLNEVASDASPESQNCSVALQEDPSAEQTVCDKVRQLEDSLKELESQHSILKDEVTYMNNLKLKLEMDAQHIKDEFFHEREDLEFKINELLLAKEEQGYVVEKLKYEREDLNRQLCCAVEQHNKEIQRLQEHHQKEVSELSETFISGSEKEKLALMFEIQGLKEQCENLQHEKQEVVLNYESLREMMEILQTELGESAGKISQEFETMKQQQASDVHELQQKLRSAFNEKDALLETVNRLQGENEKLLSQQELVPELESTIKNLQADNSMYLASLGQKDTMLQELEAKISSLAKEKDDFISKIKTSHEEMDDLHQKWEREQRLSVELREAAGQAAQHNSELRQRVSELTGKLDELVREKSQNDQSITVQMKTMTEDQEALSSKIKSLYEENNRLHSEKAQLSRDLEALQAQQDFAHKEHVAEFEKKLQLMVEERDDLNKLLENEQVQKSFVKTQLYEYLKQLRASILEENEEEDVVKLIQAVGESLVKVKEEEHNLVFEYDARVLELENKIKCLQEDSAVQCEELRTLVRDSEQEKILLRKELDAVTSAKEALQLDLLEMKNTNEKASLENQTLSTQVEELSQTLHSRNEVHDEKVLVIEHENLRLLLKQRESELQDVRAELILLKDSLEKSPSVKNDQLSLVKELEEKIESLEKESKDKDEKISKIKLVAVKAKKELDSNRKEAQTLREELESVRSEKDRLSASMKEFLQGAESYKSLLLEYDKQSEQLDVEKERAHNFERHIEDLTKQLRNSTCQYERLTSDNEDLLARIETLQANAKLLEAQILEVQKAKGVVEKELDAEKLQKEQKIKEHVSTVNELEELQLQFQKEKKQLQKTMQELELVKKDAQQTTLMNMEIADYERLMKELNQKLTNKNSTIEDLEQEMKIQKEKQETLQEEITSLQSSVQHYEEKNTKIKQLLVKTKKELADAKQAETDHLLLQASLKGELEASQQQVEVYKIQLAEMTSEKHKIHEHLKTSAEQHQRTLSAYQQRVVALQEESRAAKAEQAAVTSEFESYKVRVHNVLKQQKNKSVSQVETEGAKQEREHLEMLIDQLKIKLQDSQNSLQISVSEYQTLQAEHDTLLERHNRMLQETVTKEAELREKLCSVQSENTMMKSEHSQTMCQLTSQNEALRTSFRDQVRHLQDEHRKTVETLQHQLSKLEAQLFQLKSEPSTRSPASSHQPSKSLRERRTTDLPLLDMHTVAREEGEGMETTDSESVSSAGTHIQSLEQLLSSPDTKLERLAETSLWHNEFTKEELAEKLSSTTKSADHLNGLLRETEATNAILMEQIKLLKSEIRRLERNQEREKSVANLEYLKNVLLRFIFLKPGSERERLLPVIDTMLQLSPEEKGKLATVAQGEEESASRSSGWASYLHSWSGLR
UniProt Q8BRF7: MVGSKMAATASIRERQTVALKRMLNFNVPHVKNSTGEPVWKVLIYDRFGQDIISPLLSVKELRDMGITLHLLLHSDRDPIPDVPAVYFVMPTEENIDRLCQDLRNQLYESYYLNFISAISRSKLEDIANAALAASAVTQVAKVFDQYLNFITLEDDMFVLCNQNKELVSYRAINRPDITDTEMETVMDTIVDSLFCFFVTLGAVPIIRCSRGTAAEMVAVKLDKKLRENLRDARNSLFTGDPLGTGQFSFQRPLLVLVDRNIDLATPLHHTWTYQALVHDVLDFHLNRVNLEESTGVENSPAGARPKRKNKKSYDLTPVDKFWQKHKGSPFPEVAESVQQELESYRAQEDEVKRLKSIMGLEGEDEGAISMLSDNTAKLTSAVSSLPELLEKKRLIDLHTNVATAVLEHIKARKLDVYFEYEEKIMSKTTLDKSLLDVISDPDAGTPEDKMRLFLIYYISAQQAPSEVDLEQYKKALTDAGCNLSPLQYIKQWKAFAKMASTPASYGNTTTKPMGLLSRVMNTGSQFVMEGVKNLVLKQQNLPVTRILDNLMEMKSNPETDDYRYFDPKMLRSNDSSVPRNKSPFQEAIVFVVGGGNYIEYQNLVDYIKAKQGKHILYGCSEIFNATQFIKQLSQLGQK
UniProt Q8IZH2: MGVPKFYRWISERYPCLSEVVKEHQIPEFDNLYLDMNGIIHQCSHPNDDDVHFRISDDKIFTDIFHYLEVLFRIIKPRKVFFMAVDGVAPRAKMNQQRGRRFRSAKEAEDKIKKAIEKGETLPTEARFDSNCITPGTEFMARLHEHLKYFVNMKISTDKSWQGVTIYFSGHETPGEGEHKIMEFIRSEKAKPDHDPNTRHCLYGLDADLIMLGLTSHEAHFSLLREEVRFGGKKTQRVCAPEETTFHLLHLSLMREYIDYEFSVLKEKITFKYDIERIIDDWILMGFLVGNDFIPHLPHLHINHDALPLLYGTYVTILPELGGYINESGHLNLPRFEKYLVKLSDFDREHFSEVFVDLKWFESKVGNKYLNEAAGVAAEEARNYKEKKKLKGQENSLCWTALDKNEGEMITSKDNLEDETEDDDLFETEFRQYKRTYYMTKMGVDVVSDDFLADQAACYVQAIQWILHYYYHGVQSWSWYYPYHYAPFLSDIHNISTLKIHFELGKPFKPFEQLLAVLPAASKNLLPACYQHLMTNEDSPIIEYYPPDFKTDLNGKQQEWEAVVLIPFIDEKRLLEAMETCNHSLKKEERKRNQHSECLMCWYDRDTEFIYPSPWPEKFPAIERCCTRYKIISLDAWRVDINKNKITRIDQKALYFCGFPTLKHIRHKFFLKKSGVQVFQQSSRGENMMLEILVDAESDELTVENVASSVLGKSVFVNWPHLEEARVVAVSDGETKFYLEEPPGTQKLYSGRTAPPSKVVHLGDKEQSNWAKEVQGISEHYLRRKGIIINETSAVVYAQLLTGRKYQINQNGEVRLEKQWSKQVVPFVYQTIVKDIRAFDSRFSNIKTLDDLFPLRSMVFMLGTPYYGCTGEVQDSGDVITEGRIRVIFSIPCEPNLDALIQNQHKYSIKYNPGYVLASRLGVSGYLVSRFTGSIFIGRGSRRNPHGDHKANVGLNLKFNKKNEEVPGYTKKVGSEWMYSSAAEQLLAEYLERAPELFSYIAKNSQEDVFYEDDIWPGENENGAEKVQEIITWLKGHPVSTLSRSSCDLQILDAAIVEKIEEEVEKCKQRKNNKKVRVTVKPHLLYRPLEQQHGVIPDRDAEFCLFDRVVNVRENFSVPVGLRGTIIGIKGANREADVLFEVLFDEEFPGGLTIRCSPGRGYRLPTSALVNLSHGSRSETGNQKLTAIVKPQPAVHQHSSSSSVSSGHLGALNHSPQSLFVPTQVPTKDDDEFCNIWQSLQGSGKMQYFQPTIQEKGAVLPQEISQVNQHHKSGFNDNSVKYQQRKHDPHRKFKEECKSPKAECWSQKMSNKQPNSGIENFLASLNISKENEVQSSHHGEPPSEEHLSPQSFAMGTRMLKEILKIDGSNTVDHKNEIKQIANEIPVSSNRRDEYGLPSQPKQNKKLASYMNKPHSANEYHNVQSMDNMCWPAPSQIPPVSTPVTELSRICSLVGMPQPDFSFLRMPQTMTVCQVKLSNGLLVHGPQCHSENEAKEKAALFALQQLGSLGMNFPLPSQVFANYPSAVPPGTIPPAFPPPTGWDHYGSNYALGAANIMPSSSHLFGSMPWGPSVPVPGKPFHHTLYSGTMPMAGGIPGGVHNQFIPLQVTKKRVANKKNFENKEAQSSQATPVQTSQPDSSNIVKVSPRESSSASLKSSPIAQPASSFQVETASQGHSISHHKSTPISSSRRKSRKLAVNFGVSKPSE
UniProt Q64430: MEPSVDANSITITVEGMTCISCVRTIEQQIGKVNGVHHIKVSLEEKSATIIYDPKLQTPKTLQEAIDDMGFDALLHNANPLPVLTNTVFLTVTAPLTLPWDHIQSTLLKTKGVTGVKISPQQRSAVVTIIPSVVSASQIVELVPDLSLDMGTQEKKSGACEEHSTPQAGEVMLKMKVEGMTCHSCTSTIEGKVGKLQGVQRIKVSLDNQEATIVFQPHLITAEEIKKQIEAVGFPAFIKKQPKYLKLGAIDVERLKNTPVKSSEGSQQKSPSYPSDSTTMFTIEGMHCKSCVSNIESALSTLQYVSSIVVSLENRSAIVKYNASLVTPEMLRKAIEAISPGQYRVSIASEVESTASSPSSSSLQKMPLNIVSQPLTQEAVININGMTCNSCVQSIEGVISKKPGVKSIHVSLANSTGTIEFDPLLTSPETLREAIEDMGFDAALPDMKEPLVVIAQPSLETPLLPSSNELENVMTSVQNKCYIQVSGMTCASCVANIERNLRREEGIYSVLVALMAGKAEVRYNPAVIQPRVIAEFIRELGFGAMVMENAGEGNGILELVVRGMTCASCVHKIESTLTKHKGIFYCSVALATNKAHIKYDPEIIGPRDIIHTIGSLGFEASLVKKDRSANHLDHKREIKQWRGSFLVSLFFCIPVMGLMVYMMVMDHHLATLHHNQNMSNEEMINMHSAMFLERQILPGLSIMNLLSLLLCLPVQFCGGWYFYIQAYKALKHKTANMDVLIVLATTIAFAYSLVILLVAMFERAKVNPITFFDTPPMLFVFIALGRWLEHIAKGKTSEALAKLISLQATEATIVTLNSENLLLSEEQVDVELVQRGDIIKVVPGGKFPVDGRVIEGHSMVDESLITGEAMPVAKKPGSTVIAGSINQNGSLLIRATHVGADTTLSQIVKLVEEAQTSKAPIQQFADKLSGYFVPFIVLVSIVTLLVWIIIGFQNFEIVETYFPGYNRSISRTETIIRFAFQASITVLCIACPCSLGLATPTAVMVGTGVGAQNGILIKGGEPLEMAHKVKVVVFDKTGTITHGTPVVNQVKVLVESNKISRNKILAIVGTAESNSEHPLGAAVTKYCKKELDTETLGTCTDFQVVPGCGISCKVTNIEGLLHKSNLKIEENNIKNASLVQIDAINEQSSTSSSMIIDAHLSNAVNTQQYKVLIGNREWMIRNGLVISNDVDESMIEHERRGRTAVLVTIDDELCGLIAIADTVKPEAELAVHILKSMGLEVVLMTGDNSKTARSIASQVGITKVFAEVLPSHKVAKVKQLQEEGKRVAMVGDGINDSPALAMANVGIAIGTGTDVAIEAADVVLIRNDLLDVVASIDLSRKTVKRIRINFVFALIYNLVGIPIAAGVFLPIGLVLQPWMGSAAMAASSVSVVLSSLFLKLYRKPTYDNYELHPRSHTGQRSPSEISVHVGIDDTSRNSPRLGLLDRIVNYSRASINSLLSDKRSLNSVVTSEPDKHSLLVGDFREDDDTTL

Columns and labels:
Test in all cases: proximity labelling
[1] = biological target: T1, γ2-COP-ultraID (γ2-COP subunit of coatomer with ultraID fused to its C-terminus) (UniProt Q9QXK3)
T1 sequence: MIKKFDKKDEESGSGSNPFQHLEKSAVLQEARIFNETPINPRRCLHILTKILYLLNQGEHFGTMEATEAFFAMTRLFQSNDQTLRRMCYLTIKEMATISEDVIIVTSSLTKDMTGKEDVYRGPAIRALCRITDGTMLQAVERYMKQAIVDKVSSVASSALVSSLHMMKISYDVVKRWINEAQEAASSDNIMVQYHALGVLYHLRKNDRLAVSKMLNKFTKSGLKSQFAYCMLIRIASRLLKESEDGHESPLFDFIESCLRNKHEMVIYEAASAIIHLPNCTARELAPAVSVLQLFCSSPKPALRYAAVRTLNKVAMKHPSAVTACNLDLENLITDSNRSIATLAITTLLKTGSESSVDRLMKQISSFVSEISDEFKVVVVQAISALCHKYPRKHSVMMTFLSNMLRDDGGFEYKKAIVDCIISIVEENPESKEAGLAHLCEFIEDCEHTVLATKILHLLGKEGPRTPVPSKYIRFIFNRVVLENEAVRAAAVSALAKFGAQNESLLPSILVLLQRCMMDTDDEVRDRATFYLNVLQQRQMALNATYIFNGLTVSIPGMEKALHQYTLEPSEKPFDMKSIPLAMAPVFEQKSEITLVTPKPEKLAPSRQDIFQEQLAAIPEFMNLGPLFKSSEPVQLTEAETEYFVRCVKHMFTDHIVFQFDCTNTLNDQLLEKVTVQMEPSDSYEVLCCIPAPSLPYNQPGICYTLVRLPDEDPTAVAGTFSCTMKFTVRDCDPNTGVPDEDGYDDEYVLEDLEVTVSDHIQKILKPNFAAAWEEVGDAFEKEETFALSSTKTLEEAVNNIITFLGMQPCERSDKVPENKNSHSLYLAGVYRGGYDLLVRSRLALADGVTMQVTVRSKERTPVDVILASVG

[2] = biological target: T2, γ1-COP-ultraID (γ1-COP subunit of coatomer with ultraID fused to its C-terminus) (UniProt Q9QZE5)
T2 sequence: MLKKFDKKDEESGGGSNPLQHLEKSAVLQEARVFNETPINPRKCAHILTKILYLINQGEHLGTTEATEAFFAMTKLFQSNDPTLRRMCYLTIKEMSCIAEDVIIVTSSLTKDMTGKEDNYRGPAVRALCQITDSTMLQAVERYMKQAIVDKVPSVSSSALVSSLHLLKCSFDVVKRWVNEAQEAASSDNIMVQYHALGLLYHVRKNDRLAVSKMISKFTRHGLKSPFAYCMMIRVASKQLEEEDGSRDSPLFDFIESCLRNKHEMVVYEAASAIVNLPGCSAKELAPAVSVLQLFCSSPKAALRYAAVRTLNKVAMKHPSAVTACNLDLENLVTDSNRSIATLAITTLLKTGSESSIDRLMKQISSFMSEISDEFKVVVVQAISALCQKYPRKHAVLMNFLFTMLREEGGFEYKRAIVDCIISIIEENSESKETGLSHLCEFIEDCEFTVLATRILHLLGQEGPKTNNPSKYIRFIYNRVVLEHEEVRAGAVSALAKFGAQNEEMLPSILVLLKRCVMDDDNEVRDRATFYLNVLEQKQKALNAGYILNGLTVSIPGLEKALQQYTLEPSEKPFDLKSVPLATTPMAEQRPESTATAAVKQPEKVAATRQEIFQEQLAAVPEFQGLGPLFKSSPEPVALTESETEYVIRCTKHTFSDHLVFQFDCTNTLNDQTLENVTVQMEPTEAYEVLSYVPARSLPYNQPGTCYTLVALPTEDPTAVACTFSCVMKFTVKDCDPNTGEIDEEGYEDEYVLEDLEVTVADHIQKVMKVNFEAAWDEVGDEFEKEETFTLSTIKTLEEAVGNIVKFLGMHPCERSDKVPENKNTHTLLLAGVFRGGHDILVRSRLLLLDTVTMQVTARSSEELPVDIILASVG

BioID-Ago2 = BioID-Ago2 (UniProt Q9UKV8)
[3] = biological target: ultraID-Ago2 (ultraID fused to the N-terminus of Argonaute-2) (UniProt Q9UKV8)

Row | Substance | binding [1] | binding [2] | binding (BioID-Ago2) | binding [3]
1 | GCC185 (from UniProt Q8CHG3 1-1680) | binds | binds |  | 
2 | Dicer (from UniProt Q9UPY3 1-1922) |  |  | binds | binds
3 | SLY-homolog (from UniProt Q8BRF7 1-639) | binds | binds |  | 

Next, values leading:

Row | binding [1] | binding [2] | binding (BioID-Ago2) | binding [3] | Substance
4 | binds | binds |  |  | giantin (mouse (endogenous in P19))
5 |  |  | binds | binds | XRN1 (from UniProt Q8IZH2 1-1706)
6 |  | binds |  |  | ATP7A (from UniProt Q64430 1-1491)
7 |  |  | binds | binds | CNOT1 (from UniProt A5YKK6 1-2376)
8 | binds | binds |  |  | golgin-245 (from UniProt Q91VW5 1-2238)
